In this test the target is Lrp6-APEX2 chimeric receptor (human) (UniProt O75581). In words: proximity labelling; Lrp6-APEX2 HEK293T stable cells preincubated with Porcupine inhibitor (IWP-2), 30 min biotin-phenol, then control or Wnt3a conditioned medium with 50 ng/ml R-Spo1 and 2 for 5 or 20 min, 1 min H2O2; lysis, streptavidin pull-down of biotinylated proteins, MS/MS; biological duplicates.

Chains of the proteins cited; added tags and fusions are not shown. Lines headed by an entry give the natural chain unless they say otherwise; changes in a name come on top. Residues count along the entry.
UniProt O75581, residues 20-1613: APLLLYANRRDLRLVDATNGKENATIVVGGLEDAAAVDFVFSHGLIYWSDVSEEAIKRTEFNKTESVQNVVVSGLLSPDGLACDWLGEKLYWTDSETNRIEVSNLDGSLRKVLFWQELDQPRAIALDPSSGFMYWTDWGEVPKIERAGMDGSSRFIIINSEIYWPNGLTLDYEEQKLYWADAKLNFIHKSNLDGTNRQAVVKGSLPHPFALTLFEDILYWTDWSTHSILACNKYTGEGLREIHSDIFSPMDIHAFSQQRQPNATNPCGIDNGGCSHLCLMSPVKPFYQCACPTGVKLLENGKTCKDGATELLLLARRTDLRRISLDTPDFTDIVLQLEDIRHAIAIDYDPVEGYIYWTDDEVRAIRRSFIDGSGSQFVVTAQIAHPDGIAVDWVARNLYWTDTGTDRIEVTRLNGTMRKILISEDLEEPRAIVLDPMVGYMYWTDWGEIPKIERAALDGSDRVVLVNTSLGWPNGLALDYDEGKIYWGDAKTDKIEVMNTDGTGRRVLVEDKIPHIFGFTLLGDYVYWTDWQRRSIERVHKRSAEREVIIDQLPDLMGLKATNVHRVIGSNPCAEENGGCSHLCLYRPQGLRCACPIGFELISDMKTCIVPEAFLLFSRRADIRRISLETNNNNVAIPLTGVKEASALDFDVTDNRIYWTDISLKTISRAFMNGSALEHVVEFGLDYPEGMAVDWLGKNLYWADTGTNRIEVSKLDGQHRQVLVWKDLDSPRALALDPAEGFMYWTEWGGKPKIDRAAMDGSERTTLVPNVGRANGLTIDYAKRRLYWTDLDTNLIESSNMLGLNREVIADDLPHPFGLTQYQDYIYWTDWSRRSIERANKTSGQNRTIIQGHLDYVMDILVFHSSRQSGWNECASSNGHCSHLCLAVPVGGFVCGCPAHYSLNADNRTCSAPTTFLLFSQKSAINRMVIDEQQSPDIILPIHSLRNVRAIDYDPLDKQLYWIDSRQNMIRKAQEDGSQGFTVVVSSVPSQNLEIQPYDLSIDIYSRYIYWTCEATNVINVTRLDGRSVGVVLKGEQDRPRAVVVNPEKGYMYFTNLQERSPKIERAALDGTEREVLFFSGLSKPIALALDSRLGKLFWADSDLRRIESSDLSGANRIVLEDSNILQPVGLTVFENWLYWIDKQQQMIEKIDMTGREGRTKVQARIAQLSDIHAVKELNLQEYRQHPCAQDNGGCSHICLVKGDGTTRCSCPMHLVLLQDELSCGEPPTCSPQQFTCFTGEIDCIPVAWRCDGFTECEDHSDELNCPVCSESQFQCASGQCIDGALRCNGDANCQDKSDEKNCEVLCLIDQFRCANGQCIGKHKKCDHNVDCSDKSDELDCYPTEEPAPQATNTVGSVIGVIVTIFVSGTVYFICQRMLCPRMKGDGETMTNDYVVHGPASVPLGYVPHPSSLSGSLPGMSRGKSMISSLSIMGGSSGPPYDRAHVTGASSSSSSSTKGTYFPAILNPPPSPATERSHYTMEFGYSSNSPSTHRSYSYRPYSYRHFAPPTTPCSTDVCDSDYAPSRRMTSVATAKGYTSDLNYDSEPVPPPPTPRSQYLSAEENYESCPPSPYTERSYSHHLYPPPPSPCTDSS
UniProt Q9UQB8: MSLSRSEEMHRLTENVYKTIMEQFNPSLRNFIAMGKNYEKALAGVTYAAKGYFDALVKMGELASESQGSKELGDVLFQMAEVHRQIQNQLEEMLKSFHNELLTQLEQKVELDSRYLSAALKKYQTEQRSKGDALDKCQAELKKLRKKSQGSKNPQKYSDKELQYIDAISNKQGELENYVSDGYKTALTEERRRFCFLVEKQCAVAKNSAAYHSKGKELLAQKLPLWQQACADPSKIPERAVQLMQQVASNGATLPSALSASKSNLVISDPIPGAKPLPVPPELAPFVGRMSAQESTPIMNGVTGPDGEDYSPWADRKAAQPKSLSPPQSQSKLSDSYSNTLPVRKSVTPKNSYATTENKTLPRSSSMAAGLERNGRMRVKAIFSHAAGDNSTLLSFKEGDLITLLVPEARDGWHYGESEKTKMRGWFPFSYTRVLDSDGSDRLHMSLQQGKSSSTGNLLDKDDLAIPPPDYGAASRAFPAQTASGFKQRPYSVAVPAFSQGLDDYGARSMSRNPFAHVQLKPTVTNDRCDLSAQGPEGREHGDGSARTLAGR
UniProt O14641: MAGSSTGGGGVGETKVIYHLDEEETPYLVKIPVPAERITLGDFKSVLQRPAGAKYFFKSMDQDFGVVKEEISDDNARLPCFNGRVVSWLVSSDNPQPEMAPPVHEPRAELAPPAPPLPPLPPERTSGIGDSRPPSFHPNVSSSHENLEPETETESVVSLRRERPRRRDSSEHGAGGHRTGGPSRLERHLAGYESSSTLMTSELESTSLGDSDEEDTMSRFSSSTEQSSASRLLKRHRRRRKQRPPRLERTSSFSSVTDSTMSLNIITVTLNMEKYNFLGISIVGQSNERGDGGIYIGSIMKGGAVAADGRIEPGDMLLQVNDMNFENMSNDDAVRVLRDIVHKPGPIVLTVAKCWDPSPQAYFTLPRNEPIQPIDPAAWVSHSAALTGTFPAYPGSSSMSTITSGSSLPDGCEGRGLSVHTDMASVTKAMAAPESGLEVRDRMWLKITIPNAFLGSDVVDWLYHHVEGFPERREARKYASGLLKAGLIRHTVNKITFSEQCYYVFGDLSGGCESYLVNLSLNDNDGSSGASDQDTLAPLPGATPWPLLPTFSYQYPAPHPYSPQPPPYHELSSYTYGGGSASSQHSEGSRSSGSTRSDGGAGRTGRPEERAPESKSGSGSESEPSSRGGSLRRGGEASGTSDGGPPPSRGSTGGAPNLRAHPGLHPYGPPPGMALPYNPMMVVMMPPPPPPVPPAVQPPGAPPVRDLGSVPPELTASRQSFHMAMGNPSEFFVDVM
UniProt O14964: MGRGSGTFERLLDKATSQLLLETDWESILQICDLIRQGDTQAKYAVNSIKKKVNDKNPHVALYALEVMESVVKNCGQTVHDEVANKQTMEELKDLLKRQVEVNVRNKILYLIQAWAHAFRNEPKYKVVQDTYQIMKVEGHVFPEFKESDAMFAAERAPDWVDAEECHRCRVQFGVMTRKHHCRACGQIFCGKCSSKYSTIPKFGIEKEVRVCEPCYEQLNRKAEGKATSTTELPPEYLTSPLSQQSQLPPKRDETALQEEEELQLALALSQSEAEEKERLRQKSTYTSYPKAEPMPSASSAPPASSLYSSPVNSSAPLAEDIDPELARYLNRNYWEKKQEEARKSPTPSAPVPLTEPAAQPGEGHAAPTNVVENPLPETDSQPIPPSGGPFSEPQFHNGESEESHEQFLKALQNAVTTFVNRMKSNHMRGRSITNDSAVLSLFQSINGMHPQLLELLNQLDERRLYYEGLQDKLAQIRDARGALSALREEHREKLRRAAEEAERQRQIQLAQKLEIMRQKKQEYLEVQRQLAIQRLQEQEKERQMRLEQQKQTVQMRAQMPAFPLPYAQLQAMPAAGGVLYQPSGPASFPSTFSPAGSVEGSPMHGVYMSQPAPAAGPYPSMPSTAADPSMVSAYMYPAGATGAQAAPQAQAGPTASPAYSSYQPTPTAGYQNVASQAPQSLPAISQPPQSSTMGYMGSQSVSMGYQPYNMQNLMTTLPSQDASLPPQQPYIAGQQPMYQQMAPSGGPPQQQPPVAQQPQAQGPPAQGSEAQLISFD
UniProt Q92783: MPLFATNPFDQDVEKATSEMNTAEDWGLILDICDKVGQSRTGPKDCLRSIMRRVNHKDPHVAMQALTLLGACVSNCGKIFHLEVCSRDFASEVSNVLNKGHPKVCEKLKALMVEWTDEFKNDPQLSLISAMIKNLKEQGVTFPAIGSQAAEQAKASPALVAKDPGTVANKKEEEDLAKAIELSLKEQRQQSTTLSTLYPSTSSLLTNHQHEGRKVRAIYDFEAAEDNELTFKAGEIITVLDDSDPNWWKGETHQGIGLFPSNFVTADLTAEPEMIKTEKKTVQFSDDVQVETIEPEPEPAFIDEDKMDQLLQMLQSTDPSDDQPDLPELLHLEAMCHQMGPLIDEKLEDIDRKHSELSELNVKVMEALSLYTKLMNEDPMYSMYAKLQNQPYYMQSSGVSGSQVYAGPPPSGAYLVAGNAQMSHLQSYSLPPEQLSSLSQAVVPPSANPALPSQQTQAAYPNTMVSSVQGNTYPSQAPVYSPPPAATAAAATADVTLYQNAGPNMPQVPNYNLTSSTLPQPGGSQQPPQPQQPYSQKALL
UniProt Q9C0C2: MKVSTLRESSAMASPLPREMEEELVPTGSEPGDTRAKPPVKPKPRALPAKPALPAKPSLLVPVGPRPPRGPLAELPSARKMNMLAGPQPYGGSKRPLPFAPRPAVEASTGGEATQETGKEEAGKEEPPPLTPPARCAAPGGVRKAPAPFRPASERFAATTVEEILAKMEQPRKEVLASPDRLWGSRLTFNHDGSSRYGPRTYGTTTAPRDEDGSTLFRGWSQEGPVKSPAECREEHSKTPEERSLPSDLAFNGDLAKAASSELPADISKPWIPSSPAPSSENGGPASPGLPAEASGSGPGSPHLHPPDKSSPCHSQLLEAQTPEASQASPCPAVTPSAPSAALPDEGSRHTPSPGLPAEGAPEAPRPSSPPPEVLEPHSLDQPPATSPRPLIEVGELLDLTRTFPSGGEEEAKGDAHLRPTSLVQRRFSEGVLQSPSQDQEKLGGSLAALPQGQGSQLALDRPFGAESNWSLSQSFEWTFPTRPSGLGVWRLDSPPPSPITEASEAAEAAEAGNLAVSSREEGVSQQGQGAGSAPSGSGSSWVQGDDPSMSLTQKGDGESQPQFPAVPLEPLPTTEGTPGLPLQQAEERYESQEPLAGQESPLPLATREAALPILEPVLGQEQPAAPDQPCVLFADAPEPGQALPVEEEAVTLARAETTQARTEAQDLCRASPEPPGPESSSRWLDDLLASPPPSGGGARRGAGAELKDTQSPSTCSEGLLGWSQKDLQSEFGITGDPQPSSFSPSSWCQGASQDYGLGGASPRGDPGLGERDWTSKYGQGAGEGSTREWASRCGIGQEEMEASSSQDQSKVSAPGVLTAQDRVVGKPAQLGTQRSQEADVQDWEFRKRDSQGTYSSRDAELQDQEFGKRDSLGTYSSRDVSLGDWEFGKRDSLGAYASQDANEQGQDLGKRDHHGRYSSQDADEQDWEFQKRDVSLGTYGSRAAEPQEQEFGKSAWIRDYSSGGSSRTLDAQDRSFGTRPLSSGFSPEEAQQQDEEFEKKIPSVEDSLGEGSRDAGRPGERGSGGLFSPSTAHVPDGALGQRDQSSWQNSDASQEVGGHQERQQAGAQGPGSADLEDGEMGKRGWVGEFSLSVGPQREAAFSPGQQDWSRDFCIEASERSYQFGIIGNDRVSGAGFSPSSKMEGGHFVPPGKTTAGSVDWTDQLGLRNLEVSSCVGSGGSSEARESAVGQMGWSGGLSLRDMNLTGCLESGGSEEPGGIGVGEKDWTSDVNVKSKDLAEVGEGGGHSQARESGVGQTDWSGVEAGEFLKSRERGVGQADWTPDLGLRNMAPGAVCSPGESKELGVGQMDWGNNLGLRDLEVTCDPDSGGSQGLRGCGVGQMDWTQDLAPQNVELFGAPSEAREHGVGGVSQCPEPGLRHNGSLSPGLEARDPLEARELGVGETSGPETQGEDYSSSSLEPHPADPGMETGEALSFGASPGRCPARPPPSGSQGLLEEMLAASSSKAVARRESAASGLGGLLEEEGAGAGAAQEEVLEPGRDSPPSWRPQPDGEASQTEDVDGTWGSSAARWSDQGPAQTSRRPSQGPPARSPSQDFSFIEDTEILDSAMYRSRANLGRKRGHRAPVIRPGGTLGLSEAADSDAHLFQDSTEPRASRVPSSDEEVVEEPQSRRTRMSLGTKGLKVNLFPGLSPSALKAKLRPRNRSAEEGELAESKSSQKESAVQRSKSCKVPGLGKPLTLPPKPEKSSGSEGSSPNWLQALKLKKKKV
UniProt Q99816: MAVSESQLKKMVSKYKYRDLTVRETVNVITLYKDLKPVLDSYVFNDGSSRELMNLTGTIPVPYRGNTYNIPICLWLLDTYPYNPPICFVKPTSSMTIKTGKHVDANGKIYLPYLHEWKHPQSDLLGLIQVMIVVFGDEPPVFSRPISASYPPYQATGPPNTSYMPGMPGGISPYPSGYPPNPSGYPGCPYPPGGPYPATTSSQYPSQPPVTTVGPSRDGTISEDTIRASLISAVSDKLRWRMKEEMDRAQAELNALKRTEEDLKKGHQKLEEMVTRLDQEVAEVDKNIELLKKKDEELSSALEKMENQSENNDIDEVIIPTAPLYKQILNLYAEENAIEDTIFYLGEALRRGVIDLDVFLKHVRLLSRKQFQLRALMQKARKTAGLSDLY
UniProt Q9UK41: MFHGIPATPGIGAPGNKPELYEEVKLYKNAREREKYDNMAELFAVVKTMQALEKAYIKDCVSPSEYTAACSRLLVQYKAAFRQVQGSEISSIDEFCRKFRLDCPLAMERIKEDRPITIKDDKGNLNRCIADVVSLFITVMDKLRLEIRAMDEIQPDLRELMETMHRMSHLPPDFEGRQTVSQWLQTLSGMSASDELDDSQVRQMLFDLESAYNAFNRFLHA

No constants are given. Whether binding was seen depends on the method and setting. In cells and extracts the contact can be indirect. Here binding means that the protein was enriched with, or labelled near, the bait; the list need not be complete.

Take BAIAP2 (from UniProt Q9UQB8 1-552): the binding result was “binds”.

Regarding “Dishevelled 2 (Dvl2) (from UniProt O14641 1-736)”, the binding entry is recorded as “binds”.

Consider Hrs/Hgs (from UniProt O14964 1-777), for which the binding entry was “binds”. With Kras (from UniProt P01116 1-189) the entry was “binds”; with PDLIM1 (from UniProt O00151 1-329), “binds”; with Stam1 (from UniProt Q92783 1-540), “binds”. With “Tankyrase-1 binding protein (from UniProt Q9C0C2 1-1729)” the entry was “binds”; with Tsg101 (from UniProt Q99816 1-390), “binds”; with Vps28 (from UniProt Q9UK41 1-221), “binds”.

B1: Dishevelled 1 (Dvl1) (protein, UniProt O14640 1-695)
chain: MAETKIIYHMDEEETPYLVKLPVAPERVTLADFKNVLSNRPVHAYKFFFKSMDQDFGVVKEEIFDDNAKLPCFNGRVVSWLVLAEGAHSDAGSQGTDSHTDLPPPLERTGGIGDSRPPSFHPNVASSRDGMDNETGTESMVSHRRERARRRNREEAARTNGHPRGDRRRDVGLPPDSASTALSSELESSSFVDSDEDGSTSRLSSSTEQSTSSRLIRKHKRRRRKQRLRQADRASSFSSITDSTMSLNIVTVTLNMERHHFLGISIVGQSNDRGDGGIYIGSIMKGGAVAADGRIEPGDMLLQVNDVNFENMSNDDAVRVLREIVSQTGPISLTVAKCWDPTPRSYFTVPRADPVRPIDPAAWLSHTAALTGALPRYGTSPCSSAVTRTSSSSLTSSVPGAPQLEEAPLTVKSDMSAVVRVMQLPDSGLEIRDRMWLKITIANAVIGADVVDWLYTHVEGFKERREARKYASSLLKHGFLRHTVNKITFSEQCYYVFGDLCSNLATLNLNSGSSGTSDQDTLAPLPHPAAPWPLGQGYPYQYPGPPPCFPPAYQDPGFSYGSGSTGSQQSEGSKSSGSTRSSRRAPGREKERRAAGAGGSGSESDHTAPSGVGSSWRERPAGQLSRGSSPRSQASATAPGLPPPHPTTKAYTVVGGPPGGPPVRELAAVPPELTGSRQSFQKAMGNPCEFFVDIM
For the molecule B1, the binding result was “binds”.

B2: LASP1 (protein, UniProt Q14847 1-261)
chain: MNPNCARCGKIVYPTEKVNCLDKFWHKACFHCETCKMTLNMKNYKGYEKKPYCNAHYPKQSFTMVADTPENLRLKQQSELQSQVRYKEEFEKNKGKGFSVVADTPELQRIKKTQDQISNIKYHEEFEKSRMGPSGGEGMEPERRDSQDGSSYRRPLEQQQPHHIPTSAPVYQQPQQQPVAQSYGGYKEPAAPVSIQRSAPGGGGKRYRAVYDYSAADEDEVSFQDGDTIVNVQQIDDGWMYGTVERTGDTGMLPANYVEAI
B2: the binding result is reported as “binds”.
